Experimental data from patent US20080300147A1, “Detection and Treatment of Fibrotic Disorders” (priority 2004, published 2008).

Legend:
[1] = test system: leiomyoma smooth muscle cells (LSMC); assay: cDNA microarray gene expression profiling of LSMC treated with GnRHa, TGF-β1 or TGF-β type II receptor antisense; type: cell-based, human; details: LSMC and MSMC together
leiomyoma = assay: cDNA microarray gene expression profiling of leiomyoma, GnRHa-treated vs untreated patients; type: in vivo, human
myometrium = assay: cDNA microarray gene expression profiling of myometrium, GnRHa-treated vs untreated patients; type: in vivo, human

Compound | genes differentially expressed and regulated in response to TGF-β ([1]; TGF-β1 2.5 ng/ml, 2, 6 and 12 hours, p≦0.001) [genes] | genes up (+) in GnRH-treated (leiomyoma) [genes] | transcripts downregulated due to GnRHa therapy (leiomyoma) [transcripts] | genes targeted by GnRHa therapy (leiomyoma; excluding 26 EST, p≦0.02) [genes] | genes up (+) in GnRH-treated (myometrium) [genes] | transcripts downregulated due to GnRHa therapy (myometrium) [transcripts] | genes targeted by GnRHa therapy (myometrium; excluding 31 EST, p≦0.02) [genes] | genes differentially expressed and regulated in response to GnRHa ([1]; 0.1 μM, 2, 6 and 12 hours, including 36 EST, p≦0.005) [genes]
TGF-β1: human recombinant TGF-β1 (R&D System), used at 2.5 ng/ml | 310 |  |  |  |  |  |  | 
CCNC(=O)[C@@H]1CCCN1C(=O)[C@H](CCCNC(=N)N)NC(=O)[C@H](CC(C)C)NC(=O)[C@@H](CC(C)C)NC(=O)[C@H](Cc1ccc(O)cc1)NC(=O)[C@H](CO)NC(=O)[C@H](Cc1c[nH]c2ccccc12)NC(=O)[C@H](Cc1c[nH]cn1)NC(=O)[C@@H]1CCC(=O)N1 [GnRHa, leuprolide acetate] |  | 74 | 96 | 170 | 47 | 89 | 167 | 281
